Measured values: the supplement of paper PMC12823440, “Inhibitors supercharge kinase turnover through native proteolytic circuits” (Nature, 2025)
Counter-ions that a name gives are not always drawn. This is one part of the list. Hit calls seldom repeat between salt and free forms of one compound.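 Kinases were expressed as nanoluciferase fusions in K562 cells and luminescence was read every 4 h between 2 and 18 h as percent of control, DMSO set to 100% and a positive control to 0%. A time point counts as decreased when the signal drops significantly (2 sigma). The hit call is the authors' own, does not follow from the count of time points alone, and its rule is not shown.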

Chains of the proteins cited; added tags and fusions are not shown. Lines headed by an entry give the natural chain unless they say otherwise; changes in a name come on top.
UniProt P21860, whole entry: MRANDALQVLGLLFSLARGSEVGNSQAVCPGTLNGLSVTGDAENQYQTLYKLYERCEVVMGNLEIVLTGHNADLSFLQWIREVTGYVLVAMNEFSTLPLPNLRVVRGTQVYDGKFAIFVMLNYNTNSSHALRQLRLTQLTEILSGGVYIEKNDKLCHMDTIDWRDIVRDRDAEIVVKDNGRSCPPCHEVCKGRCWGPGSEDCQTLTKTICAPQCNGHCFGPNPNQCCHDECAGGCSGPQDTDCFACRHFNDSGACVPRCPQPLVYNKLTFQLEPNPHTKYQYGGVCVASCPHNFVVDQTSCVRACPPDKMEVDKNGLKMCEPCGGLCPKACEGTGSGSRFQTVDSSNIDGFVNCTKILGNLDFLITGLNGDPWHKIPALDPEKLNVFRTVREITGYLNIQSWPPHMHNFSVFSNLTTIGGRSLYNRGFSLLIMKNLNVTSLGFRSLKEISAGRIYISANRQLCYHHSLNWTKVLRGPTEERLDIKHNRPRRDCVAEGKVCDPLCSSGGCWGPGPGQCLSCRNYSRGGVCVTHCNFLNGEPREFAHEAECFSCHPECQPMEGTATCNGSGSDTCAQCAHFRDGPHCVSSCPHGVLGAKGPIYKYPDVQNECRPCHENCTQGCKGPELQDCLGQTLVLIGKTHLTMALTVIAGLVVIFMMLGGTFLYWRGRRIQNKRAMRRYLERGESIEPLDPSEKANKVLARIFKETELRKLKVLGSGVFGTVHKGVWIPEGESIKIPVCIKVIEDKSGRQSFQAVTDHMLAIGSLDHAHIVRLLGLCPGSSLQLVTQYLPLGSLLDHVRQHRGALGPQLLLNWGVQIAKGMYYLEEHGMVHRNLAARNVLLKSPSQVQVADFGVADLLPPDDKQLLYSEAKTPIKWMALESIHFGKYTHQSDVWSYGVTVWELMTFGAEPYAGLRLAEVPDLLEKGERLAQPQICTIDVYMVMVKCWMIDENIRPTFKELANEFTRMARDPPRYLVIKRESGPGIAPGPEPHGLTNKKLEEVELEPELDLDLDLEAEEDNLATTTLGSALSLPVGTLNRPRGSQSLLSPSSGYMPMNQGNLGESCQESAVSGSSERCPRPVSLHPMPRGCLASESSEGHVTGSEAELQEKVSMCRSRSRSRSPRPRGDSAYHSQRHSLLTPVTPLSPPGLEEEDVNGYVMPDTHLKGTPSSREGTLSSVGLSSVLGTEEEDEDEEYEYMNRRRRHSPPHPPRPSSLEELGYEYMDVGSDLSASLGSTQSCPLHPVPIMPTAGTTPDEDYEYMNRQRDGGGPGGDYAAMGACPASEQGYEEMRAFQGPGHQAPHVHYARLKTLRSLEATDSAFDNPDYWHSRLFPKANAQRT
UniProt Q15303, whole entry R711C: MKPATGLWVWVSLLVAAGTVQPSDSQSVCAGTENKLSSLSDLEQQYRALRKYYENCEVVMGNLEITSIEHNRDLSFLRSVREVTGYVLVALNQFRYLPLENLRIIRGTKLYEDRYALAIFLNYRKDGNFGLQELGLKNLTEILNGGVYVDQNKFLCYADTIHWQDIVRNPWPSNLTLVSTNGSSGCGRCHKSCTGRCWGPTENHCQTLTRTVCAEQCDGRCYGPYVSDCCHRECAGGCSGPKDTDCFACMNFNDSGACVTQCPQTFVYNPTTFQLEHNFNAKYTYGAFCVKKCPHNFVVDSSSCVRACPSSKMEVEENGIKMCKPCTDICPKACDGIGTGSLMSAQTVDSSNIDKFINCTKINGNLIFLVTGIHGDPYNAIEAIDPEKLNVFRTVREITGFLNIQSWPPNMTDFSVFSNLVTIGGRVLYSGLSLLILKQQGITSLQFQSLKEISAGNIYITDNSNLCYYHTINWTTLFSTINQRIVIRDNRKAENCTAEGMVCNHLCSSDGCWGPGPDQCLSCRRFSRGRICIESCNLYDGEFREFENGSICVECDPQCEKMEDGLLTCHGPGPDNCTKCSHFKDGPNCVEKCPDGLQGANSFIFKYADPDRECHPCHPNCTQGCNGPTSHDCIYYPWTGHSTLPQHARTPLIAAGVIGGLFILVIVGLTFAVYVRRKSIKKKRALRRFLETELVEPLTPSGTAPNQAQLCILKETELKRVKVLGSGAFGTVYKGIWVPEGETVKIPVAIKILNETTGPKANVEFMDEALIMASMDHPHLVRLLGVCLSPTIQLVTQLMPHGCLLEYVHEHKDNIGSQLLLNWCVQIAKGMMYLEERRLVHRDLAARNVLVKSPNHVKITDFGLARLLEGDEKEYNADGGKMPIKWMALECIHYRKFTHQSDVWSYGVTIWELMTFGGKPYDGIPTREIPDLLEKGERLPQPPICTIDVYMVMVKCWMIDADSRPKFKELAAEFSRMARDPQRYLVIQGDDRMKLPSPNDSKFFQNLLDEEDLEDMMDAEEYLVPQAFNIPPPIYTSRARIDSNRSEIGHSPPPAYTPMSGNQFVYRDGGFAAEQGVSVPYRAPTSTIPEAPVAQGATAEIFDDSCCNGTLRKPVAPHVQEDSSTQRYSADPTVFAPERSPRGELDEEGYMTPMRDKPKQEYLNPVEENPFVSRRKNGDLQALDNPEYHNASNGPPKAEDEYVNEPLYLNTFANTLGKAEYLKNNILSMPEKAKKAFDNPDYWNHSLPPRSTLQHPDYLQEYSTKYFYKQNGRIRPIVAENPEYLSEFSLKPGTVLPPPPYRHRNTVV
UniProt O75460: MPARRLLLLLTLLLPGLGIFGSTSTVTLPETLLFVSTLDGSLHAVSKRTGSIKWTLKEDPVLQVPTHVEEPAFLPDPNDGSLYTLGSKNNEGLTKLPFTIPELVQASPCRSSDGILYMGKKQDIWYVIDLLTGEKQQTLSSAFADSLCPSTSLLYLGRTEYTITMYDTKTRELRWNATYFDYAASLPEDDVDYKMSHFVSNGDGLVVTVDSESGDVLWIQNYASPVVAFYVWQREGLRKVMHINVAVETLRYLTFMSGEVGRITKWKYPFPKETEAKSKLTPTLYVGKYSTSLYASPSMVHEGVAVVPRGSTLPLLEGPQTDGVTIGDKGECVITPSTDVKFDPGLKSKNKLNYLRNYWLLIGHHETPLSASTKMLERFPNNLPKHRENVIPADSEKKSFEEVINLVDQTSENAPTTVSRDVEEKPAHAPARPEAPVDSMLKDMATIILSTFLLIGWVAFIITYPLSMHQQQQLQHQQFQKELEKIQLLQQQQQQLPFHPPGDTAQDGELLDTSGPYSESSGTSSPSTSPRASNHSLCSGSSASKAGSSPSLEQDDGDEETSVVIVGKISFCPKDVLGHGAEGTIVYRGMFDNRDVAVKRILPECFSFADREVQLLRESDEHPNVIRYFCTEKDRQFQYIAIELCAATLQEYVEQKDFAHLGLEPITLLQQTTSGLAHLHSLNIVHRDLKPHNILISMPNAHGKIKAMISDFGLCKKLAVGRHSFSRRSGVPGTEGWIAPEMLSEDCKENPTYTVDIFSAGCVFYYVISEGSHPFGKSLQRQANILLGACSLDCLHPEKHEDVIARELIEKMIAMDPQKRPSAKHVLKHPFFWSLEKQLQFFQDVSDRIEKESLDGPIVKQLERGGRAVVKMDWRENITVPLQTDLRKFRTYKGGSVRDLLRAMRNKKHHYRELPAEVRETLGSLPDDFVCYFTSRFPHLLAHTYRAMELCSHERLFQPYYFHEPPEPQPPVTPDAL
UniProt P11362, whole entry, looked up: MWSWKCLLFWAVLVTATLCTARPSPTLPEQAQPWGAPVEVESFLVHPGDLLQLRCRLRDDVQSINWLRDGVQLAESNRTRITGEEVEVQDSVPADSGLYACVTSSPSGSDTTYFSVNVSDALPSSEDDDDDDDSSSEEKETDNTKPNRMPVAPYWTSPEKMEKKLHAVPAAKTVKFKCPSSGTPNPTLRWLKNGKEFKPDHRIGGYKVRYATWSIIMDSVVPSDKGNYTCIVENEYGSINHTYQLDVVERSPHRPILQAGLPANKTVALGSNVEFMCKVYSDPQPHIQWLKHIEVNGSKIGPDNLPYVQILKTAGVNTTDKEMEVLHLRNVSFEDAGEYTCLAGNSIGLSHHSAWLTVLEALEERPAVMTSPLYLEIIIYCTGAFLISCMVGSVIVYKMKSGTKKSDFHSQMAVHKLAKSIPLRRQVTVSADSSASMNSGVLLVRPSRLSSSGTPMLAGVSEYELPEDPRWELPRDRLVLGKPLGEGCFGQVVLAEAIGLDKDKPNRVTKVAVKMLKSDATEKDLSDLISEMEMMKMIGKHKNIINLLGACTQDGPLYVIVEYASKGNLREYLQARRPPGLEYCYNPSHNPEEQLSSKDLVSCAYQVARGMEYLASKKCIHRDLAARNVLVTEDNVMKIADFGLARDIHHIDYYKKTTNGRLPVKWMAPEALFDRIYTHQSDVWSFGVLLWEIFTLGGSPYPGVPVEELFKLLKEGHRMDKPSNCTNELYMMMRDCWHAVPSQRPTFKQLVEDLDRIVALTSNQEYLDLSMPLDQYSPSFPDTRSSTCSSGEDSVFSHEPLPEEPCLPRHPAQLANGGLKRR
UniProt Q9Y616: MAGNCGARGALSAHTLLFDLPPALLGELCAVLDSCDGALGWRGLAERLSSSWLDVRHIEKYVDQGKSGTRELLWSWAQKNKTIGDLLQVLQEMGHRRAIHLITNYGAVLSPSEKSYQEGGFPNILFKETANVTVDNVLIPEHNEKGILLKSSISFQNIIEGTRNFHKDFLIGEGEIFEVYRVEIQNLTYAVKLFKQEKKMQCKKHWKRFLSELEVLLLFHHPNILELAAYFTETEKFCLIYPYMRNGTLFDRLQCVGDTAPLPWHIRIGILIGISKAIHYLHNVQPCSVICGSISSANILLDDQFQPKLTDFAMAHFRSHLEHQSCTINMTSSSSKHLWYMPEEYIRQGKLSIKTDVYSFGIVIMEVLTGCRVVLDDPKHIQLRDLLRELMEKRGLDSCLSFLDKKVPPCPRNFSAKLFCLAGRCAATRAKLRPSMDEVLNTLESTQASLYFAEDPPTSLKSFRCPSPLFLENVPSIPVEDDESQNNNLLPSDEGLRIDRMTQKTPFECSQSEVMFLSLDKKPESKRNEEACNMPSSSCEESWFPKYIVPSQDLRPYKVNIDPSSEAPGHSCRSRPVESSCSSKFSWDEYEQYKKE
UniProt P23458: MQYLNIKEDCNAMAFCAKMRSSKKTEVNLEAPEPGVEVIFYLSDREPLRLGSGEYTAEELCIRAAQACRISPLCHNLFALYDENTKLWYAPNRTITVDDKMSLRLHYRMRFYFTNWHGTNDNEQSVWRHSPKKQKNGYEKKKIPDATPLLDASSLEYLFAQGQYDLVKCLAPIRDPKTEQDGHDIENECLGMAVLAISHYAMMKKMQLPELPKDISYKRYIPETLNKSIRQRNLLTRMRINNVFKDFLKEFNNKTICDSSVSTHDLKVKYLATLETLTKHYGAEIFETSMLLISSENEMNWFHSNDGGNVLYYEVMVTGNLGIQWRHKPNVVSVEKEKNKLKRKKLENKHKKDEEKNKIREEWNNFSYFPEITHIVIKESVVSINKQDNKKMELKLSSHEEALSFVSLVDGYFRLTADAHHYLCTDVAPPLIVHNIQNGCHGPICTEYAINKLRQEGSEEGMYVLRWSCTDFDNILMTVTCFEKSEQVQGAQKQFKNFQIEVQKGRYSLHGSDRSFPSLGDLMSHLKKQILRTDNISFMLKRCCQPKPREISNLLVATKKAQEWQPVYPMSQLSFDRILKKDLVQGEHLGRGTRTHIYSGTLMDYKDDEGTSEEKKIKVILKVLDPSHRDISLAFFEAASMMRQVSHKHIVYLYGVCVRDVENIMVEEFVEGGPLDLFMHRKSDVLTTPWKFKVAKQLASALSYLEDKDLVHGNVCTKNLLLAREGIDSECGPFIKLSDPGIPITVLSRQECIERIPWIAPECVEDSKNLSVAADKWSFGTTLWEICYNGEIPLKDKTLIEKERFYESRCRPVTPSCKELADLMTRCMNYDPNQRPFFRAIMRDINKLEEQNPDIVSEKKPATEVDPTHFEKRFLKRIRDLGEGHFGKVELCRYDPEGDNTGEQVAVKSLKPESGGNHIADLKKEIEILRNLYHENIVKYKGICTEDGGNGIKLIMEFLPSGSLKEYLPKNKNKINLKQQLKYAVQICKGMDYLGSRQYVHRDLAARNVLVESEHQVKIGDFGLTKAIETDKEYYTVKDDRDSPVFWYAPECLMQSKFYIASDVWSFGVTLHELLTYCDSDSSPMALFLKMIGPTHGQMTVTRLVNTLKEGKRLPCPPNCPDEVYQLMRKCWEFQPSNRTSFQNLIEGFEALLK

What was measured:
Assay in all cases: number of time points (of 5) at which kinase-Nluc abundance scored as decreased, DMSO-normalised (count); higher = more persistent destabilization
Settings in all cases: K562; 2-18 h
EGFR_L861Q = EGFR_L861Q (UniProt P00533)
EGFR_T790M = EGFR_T790M (UniProt P00533)
EPHA2 = EPHA2 (UniProt P29317)
ERBB3 = ERBB3 (UniProt P21860)
[1] = biological target: ERBB4_R711C (clone: ERBB4_mut) (UniProt Q15303)
ERN1 = ERN1 (UniProt O75460)
FGFR1 = FGFR1 (UniProt P11362)
FGFR2 = FGFR2 (UniProt P21802)
FGFR3 = FGFR3 (UniProt P22607)
FGR = FGR (UniProt P09769)
FLT3 = FLT3 (UniProt P36888)
FYN = FYN (UniProt P06241)
GSK3A = GSK3A (UniProt P49840)
HER2 = HER2 (UniProt P04626)
INSRR = INSRR (UniProt P14616)
IRAK3 = IRAK3 (UniProt Q9Y616)
JAK1 = JAK1 (UniProt P23458)
LCK = LCK (UniProt P06239)
LIMK1 = LIMK1 (UniProt P53667)
LIMK2 = LIMK2 (UniProt P53671)

Measured: number of time points

Cc1csc(-c2nnc(Nc3ccc(Oc4ncccc4-c4ccnc(N)n4)cc3)c3ccccc23)c1 (2.5 µM)
2: ERBB3
1: [1]
0: all other assays above

CC(C)CC1(O)CCN(C(=O)c2ccc(NS(=O)(=O)c3cccc4nccnc34)cc2)CC1 (10 µM)
0: all assays above

O=C(NCCO)c1ccc2c(c1)nc(Nc1cccc(Cl)c1)c1ccncc12 [CK2 inhibitor 2] (10 µM)
0: all assays above

COc1cc2ncn(-c3cc(OCc4ccccc4S(C)(=O)=O)c(C#N)s3)c2cc1OC (10 µM)
0: all assays above

O=[N+]([O-])c1cc(C(F)(F)F)cc([N+](=O)[O-])c1NNC(=S)Nc1ccc(F)cc1 (10 µM)
0: all assays above

CNC(=O)c1ccc(-c2cnc3cnc(C(=O)N(C)c4ccc(Cl)cc4)cn23)cc1 (2.5 µM)
0: all assays above

O=c1oc2cc(O)ccc2c2ccccc12 [Urolithin B] (10 µM)
0: all assays above

Cc1cc(-c2cc(OC(=O)c3ccccc3)ccc2Cl)cc2nnc(Nc3ccc(OCCN4CCCC4)cc3)nc12 (0.5 µM)
0: all assays above

By substructure, the compounds so far containing a carbonyl joined to an NH by a bond outside any ring
O=C(NCCO)c1ccc2c(c1)nc(Nc1cccc(Cl)c1)c1ccncc12 [CK2 inhibitor 2] (10 µM)
0: all assays above

CNC(=O)c1ccc(-c2cnc3cnc(C(=O)N(C)c4ccc(Cl)cc4)cn23)cc1 (2.5 µM)
0: all assays above

Next part.

Cn1cc(Nc2nccc(N3C[C@H]4CC[C@@H](C3)N4C(=O)[C@@H]3CC3(F)F)n2)cn1 (10 µM)
4: LIMK1
0: all other assays above

C/C(=C1/C(=O)Nc2ccc(NC(N)=O)cc21)c1ccc[nH]1 (10 µM)
4: [1]
3: IRAK3
0: all other assays above

OC[C@H]1O[C@@H](Oc2cc3c(O)cc(O)cc3[o+]c2-c2cc(O)c(O)c(O)c2)[C@H](O)[C@@H](O)[C@@H]1O [Delphinidin 3-glucoside (chloride)] (10 µM)
0: all assays above

CC(C)c1cnc(-c2cc(Cl)ccc2F)cc1Nc1ccncc1C(=O)NC(CO)CO (2.5 µM)
0: all assays above

COc1ccc(Cl)cc1NC(=O)Nc1cc(C)nc2ccccc12 (2.5 µM)
0: all assays above

CN1C(=O)C(Cc2c[nH]c3ccccc23)NC1=S (stereo not given) [Necrostatin-1] (10 µM)
0: all assays above

CCn1c(C(=O)N(C2CC2)C2CC2)cc2c3c(ncn3C)c(Nc3cc(C)n(C)n3)nc21 (10 µM)
0: all assays above

CC1CN(C(=O)Nc2ccc(Cl)c(Cl)c2)C(=Nc2ccc(F)cc2)S1 (stereo not given) (10 µM)
0: all assays above

CC(C)=CC[C@H](O)C1=CC(=O)c2c(O)ccc(O)c2C1=O [(-)-Alkannin] (2.5 µM)
0: all assays above

O=C1NC(=O)/C(=C/c2ccc3c(c2)OC(F)(F)O3)S1 (10 µM)
0: all assays above

N[C@H](Cc1c[nH]c2ccccc12)C(=O)N/N=C/c1ccc2nccnc2c1 [Rhosin (hydrochloride)] (10 µM)
0: all assays above

O=C1NC(=O)C(=Cc2ccc(-c3ccc(F)cc3)o2)S1 (stereo in doubt) (10 µM)
0: all assays above

COc1cc2c[n+](C)c3c4cc5c(cc4ccc3c2cc1OC)OCO5 [Nitidine (chloride)] (2 µM)
0: all assays above

C[C@@H]1O[C@@H](O[C@H]2[C@H](Oc3cc(O)c4c(=O)cc(-c5ccc(O)cc5)oc4c3)O[C@H](CO)[C@@H](O)[C@@H]2O)[C@H](O)[C@H](O)[C@H]1O [Rhoifolin] (10 µM)
0: all assays above

COc1ccc2c(c1O)OC(C)(C)c1c-2ccc2c1C(=O)N(c1ccc(C(=O)c3ccccc3)cc1)C2=O [Ampkinone] (10 µM)
3: LIMK2
0: all other assays above

CCOc1ccc(C(=O)Nc2ncc([N+](=O)[O-])s2)cc1 (10 µM)
0: all assays above
